The values below come from patent US20200190176A1 (VERITAS THERAPEUTICS, published 2020).

What all share (assay): antigen microarray probed with 9D8 and a fluorescent secondary antibody, IgG reactivity as MFI
Assay [1] addresses HSP 60.
The target in assay [2] is snRNP A.
In assay [3] the target is snRNP C.

These are yes or no findings as the source states them, for the method shown.

B1: anti-FGL2 monoclonal antibody 9D8 (antibody, mouse IgG1, kappa, V domains shown)
VH: EVQLQQSGAELVKPGASVQLSCTASGFNIKDTYIHWVKQRPEQGLEWIGRIDPEDGNTKYDPKFQAKATITADTFSNTAYLQLSSLTSEDTAVYYCARSYGNAYWGQGTLVTVSA
VL: DIVLTQSPASLAVSLGQRATISCRASQSVSTSRYTYMHWYQQKPGQPPKLLIKYASNLDSGVPARFSGSGSGTDFTLNIHPVQEEDTATYYCQHSWEIWAFGGGTKLEIKR
notes: Mouse hybridoma antibody purified from ascites; isotype-matched control was IgG1; here built without leader from variable region plus constant region; also called clone 9D8; antibody to FGL2 (9D8)
For the molecule B1, the binding result in assay [1], in assay [2] and in assay [3] was “no binding (tested: 1 ug/ml (panel A); 1:1000 (panel B))” in each case.
